Experimental data: PubChem BioAssay AID720505 (Drosophila RNAi Screening Center, 2013)
Screen: 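Knock-downs that reduce calcium influx once internal stores are emptied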 (primary screen). Cells: Drosophila S2R+ cells. Reagent: long dsRNA against Drosophila genes. Treatment: thapsigargin (2 µM) in calcium-free buffer to empty internal stores, then 2 mM calcium added back. Detection: 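Stores emptied by 2 µM thapsigargin without calcium, then 2 mM calcium re-added; fluo-4 fluorescence followed by FLIPR in 384-well plates, per-well averaged endpoint, raw; two screen passes, some wells retested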. Direction: calcium signal: higher = more calcium entry after store depletion. Hit rule: 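Knock-downs counted as hits when calcium entry dropped relative to STIM1 positive and Rho1 negative controls present on each plate; roughly 1500 genes called, with reductions of differing size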. Meaning of the calls: active = called as lowering calcium entry; inactive = not called.
The screen tested about 20,000 reagents; this is a random part of those with a known target gene and a result. In the full data, about 2,100 (10%) got an active call. 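Raw plate signals without normalisation; calls rest on control-based scores that were not deposited; replicate 2 separates called from uncalled poorly.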 Unmarked entries are inactive. Not stated in the record: the amount of reagent, the time to read-out.

Pvf3 (PDGF- and VEGF-related factor 3) [DRSC02284]
- calcium signal, replicate 1: 160
- calcium signal, replicate 2: 84.6

Pvf3 (PDGF- and VEGF-related factor 3) [DRSC02285]
- calcium signal, replicate 1: 152
- calcium signal, replicate 2: 94.4

Pvf3 (PDGF- and VEGF-related factor 3) [DRSC02286]
- calcium signal, replicate 1: 159
- calcium signal, replicate 2: 83.3

Pvf3 (PDGF- and VEGF-related factor 3) [DRSC02751]
- calcium signal, replicate 1: 134
- calcium signal, replicate 2: 82

Ent2 (Equilibrative nucleoside transporter 2) [DRSC02124]
- calcium signal, replicate 1: 119
- calcium signal, replicate 2: 230

Pih1D1 (PIH1 domain containing 1) [DRSC02897]
- calcium signal, replicate 1: 76.3
- calcium signal, replicate 2: 158

DIP-alpha (Dpr-interacting protein alpha) [DRSC17891]
- calcium signal, replicate 1: 117
- calcium signal, replicate 2: 157

DIP-alpha (Dpr-interacting protein alpha) [DRSC17892]
- calcium signal, replicate 1: 97
- calcium signal, replicate 2: 126

DIP-alpha (Dpr-interacting protein alpha) [DRSC23275]
- calcium signal, replicate 1: 127
- calcium signal, replicate 2: 108

CG9395 [DRSC03218]
- calcium signal, replicate 1: 76.1
- calcium signal, replicate 2: 124

CG6023 [DRSC19970]
- calcium signal, replicate 1: 182
- calcium signal, replicate 2: 152

CG6357 [DRSC06979]
- calcium signal, replicate 1: 237
- calcium signal, replicate 2: 146

Nmnat (Nicotinamide mononucleotide adenylyltransferase) [DRSC14644]
- calcium signal, replicate 1: 113
- calcium signal, replicate 2: 111

CG12056 [DRSC17796]
- calcium signal, replicate 1: 146
- calcium signal, replicate 2: 132

Polr2C (RNA polymerase II subunit C) [DRSC03415]
- calcium signal, replicate 1: 51.2 (active)
- calcium signal, replicate 2: 75.4

The list goes on, starting with the last 5 of the part before.
CG6023 [DRSC19970]
- calcium signal, replicate 1: 182
- calcium signal, replicate 2: 152

CG6357 [DRSC06979]
- calcium signal, replicate 1: 237
- calcium signal, replicate 2: 146

Nmnat (Nicotinamide mononucleotide adenylyltransferase) [DRSC14644]
- calcium signal, replicate 1: 113
- calcium signal, replicate 2: 111

CG12056 [DRSC17796]
- calcium signal, replicate 1: 146
- calcium signal, replicate 2: 132

Polr2C (RNA polymerase II subunit C) [DRSC03415]
- calcium signal, replicate 1: 51.2 (active)
- calcium signal, replicate 2: 75.4

CG34174 [DRSC00101]
- calcium signal, replicate 1: 83 (active)
- calcium signal, replicate 2: 71.8

asRNA:CR31845 (antisense RNA:CR31845) [DRSC22257]
- calcium signal, replicate 1: 129
- calcium signal, replicate 2: 140

asRNA:CR31845 (antisense RNA:CR31845) [DRSC23074]
- calcium signal, replicate 1: 65.7
- calcium signal, replicate 2: 93.2

CG12862 [DRSC06202]
- calcium signal, replicate 1: 103
- calcium signal, replicate 2: 173

mbc (myoblast city) [DRSC16995]
- calcium signal, replicate 1: 140
- calcium signal, replicate 2: 110

Ufsp1 (UFM1 specific peptidase 1) [DRSC04958]
- calcium signal, replicate 1: 79.1
- calcium signal, replicate 2: 90.1

Bet5 (Blocked early in transport 5) [DRSC14600]
- calcium signal, replicate 1: 106
- calcium signal, replicate 2: 94.8

Wdr37 (WD repeat domain 37) [DRSC14500]
- calcium signal, replicate 1: 213
- calcium signal, replicate 2: 243

ND-18 (NADH dehydrogenase (ubiquinone) 18 kDa subunit) [DRSC19441]
- calcium signal, replicate 1: 72.3 (active)
- calcium signal, replicate 2: 163

Mf (Myofilin) [DRSC16120]
- calcium signal, replicate 1: 114
- calcium signal, replicate 2: 208

mIF3 (mitochondrial translation initiation factor 3) [DRSC06290]
- calcium signal, replicate 1: 141
- calcium signal, replicate 2: 164

Galphao (G protein alpha subunit o) [DRSC07430]
- calcium signal, replicate 1: 150
- calcium signal, replicate 2: 104

AkhR (Adipokinetic hormone receptor) [DRSC03329]
- calcium signal, replicate 1: 69.2
- calcium signal, replicate 2: 111

psd (palisade) [DRSC03131]
- calcium signal, replicate 1: 140
- calcium signal, replicate 2: 102

Ssb-c31a (Single stranded-binding protein c31A) [DRSC03443]
- calcium signal, replicate 1: 141
- calcium signal, replicate 2: 112

Dna2 (DNA replication helicase/nuclease 2) [DRSC18254]
- calcium signal, replicate 1: 132
- calcium signal, replicate 2: 125

PIP5K59B (Phosphatidylinositol 4-phosphate 5-kinase 59B) [DRSC04290]
- calcium signal, replicate 1: 137
- calcium signal, replicate 2: 81.7

PIP5K59B (Phosphatidylinositol 4-phosphate 5-kinase 59B) [DRSC04403]
- calcium signal, replicate 1: 121
- calcium signal, replicate 2: 251

xmas [DRSC21306]
- calcium signal, replicate 1: 83.9
- calcium signal, replicate 2: 112

xmas [DRSC22178]
- calcium signal, replicate 1: 76.6
- calcium signal, replicate 2: 195
